PubChem BioAssay AID2685 (National Center for Advancing Translational Sciences (NCATS), 2010)
The other results are listed elsewhere or left out. Shown are side measurements of this screen, not its main read-out; they come without a call. Compounds called inactive in the main read-out are mostly missing here. Words in brackets tell the shape of the fitted curve; partial curves, single points and poor fits give uncertain potencies.

Assay: qHTS Assay for Lipid Storage Modulators in Drosophila S3 Cells;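 for cell number change: cells counted by Cell Tracker Red CMTPX staining in the red channel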
Conditions: BODIPY lipid droplet fluorescence, 18-24 h; for cell number change: measured here: cell count max response, cells fed with added oleic acid
Method in brief: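 Drosophila S3 cells got compounds at several concentrations plus oleic acid (400 uM solution). Laser-scanning cytometry with 488 nm excitation read lipid droplets at 500-530 nm and cells at 575-640 nm. Percent activity was relative to 20 uM Triacsin C.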

[1] = measured here: cell number channel AC50, cells fed with added oleic acid
[2] = measured here: lipid fluorescence (Fed channel) AC50, cells fed with added oleic acid

| Structure (SMILES) | cell number change | AC50 [1] | AC50 [2] |
| --- | --- | --- | --- |
| O=C(Cn1c(=O)n(-c2ccccc2)c(=O)n1CC(=O)N1CCCCC1)N1CCCCC1 | -9.32% | 0.731 µM [falling, partial curve, poor fit] |  |
| O=C(NCc1ccccc1Cl)C1CCCN1C(=O)NC1CCCCC1 (stereo not given) | 10.1% |  | 4.11 µM [falling, single point] |
| C/C(=N\NC(=O)COc1ccc(C(C)(C)C)cc1)c1ccc(-n2ccnc2)cc1 | -60.6% | 23.1 µM [falling, single point] | 16.4 µM [falling, single point] |
| CN(C)c1cc(N)c2ccccc2n1 (tested in a mixture with another compound) | 18.9% |  |  |
| COc1ccc(CCNC(=O)C2CCCN(S(=O)(=O)c3ccc(OC)cc3)C2)cc1 (stereo not given) | 11.8% |  |  |
| CCOC(=O)c1cnc2c(Cl)c(Cl)ccc2c1N1CCN(C)CC1 | 4.11% |  | 1.64 µM [rising, partial curve, poor fit] |
| Cc1cc(/N=C/N(C)C)on1 | -13.8% | 6.51 µM [falling, single point] |  |
| CCOC(=O)c1sc2cc([N+](=O)[O-])cc(SCCO)c2c1N | -3.92% |  | 16.4 µM [falling, single point] |
| O=C(Nc1ccc(Oc2ccc(NC(=O)Nc3ccccc3Cl)cc2)cc1)Nc1ccccc1Cl | 14.9% |  | 1.03 µM [falling, full curve] |
| COc1ccc(S(=O)(=O)N(C)CC(=O)NCc2ccccc2)cc1OC | -24.3% |  |  |
| Cc1cc(OCCCC(=O)NCCc2ccccn2)ccc1Cl | 18.3% |  | 16.4 µM [rising, partial curve] |
| Fc1ccc(NC(=S)N2N=CCC2c2ccccc2)cc1 (stereo not given) | 8.57% | 0.231 µM [rising, partial curve, poor fit] | 2.59 µM [rising, full curve] |
| COC(=O)c1cc(NC(=O)c2cccnc2)cc(C(=O)OC)c1 | -23.4% |  |  |
| CN(CCN1CCc2ccccc2C1)Cc1nc(Cc2ccccc2F)no1 | 20.4% |  | 20.6 µM [rising, partial curve, poor fit] |
| COc1ccc(CN2CCN(C(C)C(=O)N3CCc4ccccc43)CC2)cc1OC (stereo not given) | -3.81% |  |  |
| O=C(COc1ccc(C(=O)c2ccccc2)cc1)NC1CCCCC1 |  | 6.51 µM [rising, single point] |  |
| COc1ccc(C(CNC(=O)C(C)Oc2ccc(Br)cc2)N2CCCCC2)cc1 (stereo not given) | -11.1% |  | 32.6 µM [falling, partial curve] |
| CCOC(=O)c1ccc(NS(=O)(=O)c2ccc(-c3coc(C)n3)cc2)cc1 | 20.2% |  |  |
| CCOc1ccc(C(C)NC(=O)Nc2ccccc2C(=O)OC)cc1 (stereo not given) | 29.9% |  | 2.31 µM [rising, partial curve] |
| COC(=O)c1cc(CNC(=O)c2cccc(Cl)c2Cl)ccc1OC |  |  | 0.146 µM [rising, full curve, poor fit] |

Four of the compounds above, as comma-separated lines:
Structure (SMILES),cell number change,AC50 [1],AC50 [2]
COc1ccc(CCNC(=O)C2CCCN(S(=O)(=O)c3ccc(OC)cc3)C2)cc1 (stereo not given),11.8%,,
CCOC(=O)c1cnc2c(Cl)c(Cl)ccc2c1N1CCN(C)CC1,4.11%,,"1.64 µM [rising, partial curve, poor fit]"
Cc1cc(/N=C/N(C)C)on1,-13.8%,"6.51 µM [falling, single point]",
CCOC(=O)c1sc2cc([N+](=O)[O-])cc(SCCO)c2c1N,-3.92%,,"16.4 µM [falling, single point]"

Following part.

| Structure (SMILES) | cell number change | AC50 [1] | AC50 [2] |
| --- | --- | --- | --- |
| Cc1ccc(N2C(=O)CC(N3CCN(S(=O)(=O)c4ccccc4)CC3)C2=O)c(C)c1 (stereo not given) | -38.6% | 8.2 µM [falling, partial curve, poor fit] | 29.1 µM [falling, single point] |
| Cc1ccc(-c2nnn(CC(=O)N(CC(=O)NC3CCCCC3)c3ccc(F)c(Cl)c3)n2)o1 | -53.9% | 23.1 µM [falling, partial curve] | 23.1 µM [falling, partial curve] |
| CC(C)(CO)NS(=O)(=O)c1ccc2c(c1)Cc1cc(S(=O)(=O)NC(C)(C)CO)ccc1-2 | -9.49% |  | 29.1 µM [falling, single point] |
| COC(=O)c1ccc2nc(NC(=O)C3CC3)sc2c1 | 5.37% |  | 29.1 µM [falling, single point] |
| Cc1ccc(N(CC(=O)N/N=C/c2cccs2)S(C)(=O)=O)cc1 |  | 1.64 µM [falling, partial curve] | 2.31 µM [falling, partial curve, poor fit] |
| CN=C1c2cc3c(Br)c(OC)ccc3n2CCN1C | -3.13% |  | 6.51 µM [falling, single point] |
| CCN1CCN(CCCN(Cc2ccco2)C(=S)Nc2ccc(C)c(Cl)c2)CC1 |  | 6.51 µM [rising, single point] |  |
| NC(=O)CCN(C1CCCCC1)S(=O)(=O)c1cccc2nsnc12 | 17.6% |  |  |
| Cc1ccc(NC(=O)CCN2C(=O)OC(C)(C)C2(C)O)cc1 (stereo not given) |  |  | 0.116 µM [falling, partial curve, poor fit] |
| O=C(COC(=O)COc1cccc(C(F)(F)F)c1)Nc1ccc(N2CCOCC2)cc1 | 27.2% |  | 29.1 µM [rising, single point] |
| COc1ccc(C(=O)NCC(=O)OCC(=O)N2CC(C)CC(C)C2)cc1 (stereo not given) | 31.3% | 2.06 µM [rising, full curve, poor fit] |  |
| Cc1ccc(C)c(S(=O)(=O)NNC(=O)Nc2ccccc2Cl)c1 | 43.3% | 5.8 µM [rising, full curve] |  |
| COc1ccc(/C=N/NS(=O)(=O)c2ccccc2)cc1OS(=O)(=O)c1ccccc1 | -1.94% |  | 8.2 µM [rising, single point] |
| CC(Nc1nc(-c2cccnc2)nc2ccccc12)c1ccc(F)cc1 (stereo not given) | 4.84% |  | 16.4 µM [falling, single point] |
| COc1ccc(CN2CCN(CC(O)Cn3c4ccccc4c4ccccc43)CC2)cc1 (stereo not given) |  |  | 0.82 µM [falling, single point] |
| CCN(CC)C(=O)CSc1n[nH]c(=O)n1CCc1ccccc1 | 25.7% |  | 4.11 µM [rising, full curve] |
| O=C(NCC1CCCO1)c1cc2cc(Cl)ccc2[nH]1 (stereo not given) | -3.31% |  | 0.58 µM [rising, single point] |
| COc1ccc2c(c1)sc(=NC(=O)CS(=O)(=O)c1ccc(F)cc1)n2C | -25% | 0.092 µM [falling, full curve, poor fit] | 3.26 µM [falling, full curve, poor fit] |
| COc1cccc(NC(=O)CCN2CCN(C)CC2)c1 | -26.6% |  | 20.6 µM [falling, partial curve] |
| COc1ccc(N2CCOCC2)c(NC(=O)c2ccc(Br)o2)c1 | -42% | 23.1 µM [falling, single point] | 11.6 µM [falling, partial curve] |

| Structure (SMILES) | cell number change | AC50 [1] | AC50 [2] |
| --- | --- | --- | --- |
| COc1ccc(OC)c(N2C(=O)C(Cl)=C(N3CCOCC3)C2=O)c1 | -16.9% |  | 2.91 µM [falling, full curve] |
| COC(=O)Cc1c(O)ccn(Cc2cccc(C(F)(F)F)c2)c1=O | 5.7% |  | 29.1 µM [rising, single point] |
| CCOC(=O)c1cccc(NC(=O)c2ccc(NC(=O)C3CCCO3)cc2)c1 (stereo not given) |  |  | 10.3 µM [falling, partial curve, poor fit] |
| CCNC(=O)COC(=O)c1sccc1C | 2.6% |  | 0.00461 µM [rising, full curve, poor fit] |
| Cc1c(OCC(=O)NCc2ccncc2)ccc2c3c(c(=O)oc12)CCCC3 | 46.6% | 0.058 µM [rising, full curve, poor fit] | 29.1 µM [rising, partial curve] |
| COCC(C)n1c(COc2ccccc2F)nnc1SCC(=O)Nc1oc(C)c2c(C)n[nH]c(=O)c12 (stereo not given) | -1.41% |  | 0.517 µM [rising, single point] |
| CN(c1ccc(Br)cc1)S(=O)(=O)c1ccc2[nH]cc(C(=O)NCCN3CCOCC3)c(=O)c2c1 | -28.9% |  | 1.46 µM [falling, full curve] |
| Cc1ccc2nc3c(cc(C#N)c(=O)n3CCN3CCOCC3)c(=O)n2c1 | 5.62% |  | 0.092 µM [rising, full curve, poor fit] |
| COc1ccccc1NC(=O)NC1CCCc2ccccc21 (stereo not given) |  |  | 15.8 µM [rising, partial curve] |
| CCOC(=O)C1CCN(C(=O)c2ccc3c(c2)NC(=O)/C(=C\c2ccc(C)cc2)S3)CC1 |  |  | 3.26 µM [falling, partial curve] |
| Cc1nc(C(=O)N2CCCC(C(=O)c3cccc(OC(C)C)c3)C2)cs1 (stereo not given) | -32.9% | 0.00517 µM [falling, full curve, poor fit] |  |
| CC1CCc2c(sc3ncnc(NCc4cccnc4)c23)C1 (stereo not given) | 43.4% | 5.17 µM [rising, full curve, poor fit] |  |
| C=CCNC(=O)c1ccc(-n2cccc2)cc1 | 5.58% |  |  |
| CC(Sc1nc(C(F)(F)F)nc2ccccc12)C(=O)NC1CCCC1 (stereo not given) | 39.8% | 0.58 µM [rising, partial curve, poor fit] |  |
| COc1cc(CN2CCC(Oc3cc(C(=O)NC4CC4)ccc3OC)CC2)cc(OC)c1 | 33.1% |  |  |
| Nc1c(Cl)c(Cl)nc(C(=O)OCC(=O)NC2CCCCC2)c1Cl |  |  | 3.66 µM [falling, full curve] |
| COC(=O)c1cc(NC(=O)CN2CCOCC2)cc(C(=O)OC)c1 | 30.1% | 13 µM [rising, single point] | 0.58 µM [falling, single point] |
| c1ccc(CN2CCN(c3nc4ccccc4s3)CC2)cc1 | 3.42% |  | 6.51 µM [rising, single point] |
| Cc1cccc(C)c1NC(=O)CSc1nnc(Cn2nnc(-c3ccccc3)n2)n1-c1ccccc1 | -22.2% |  | 0.116 µM [falling, full curve, poor fit] |
| Clc1ccc(-c2nnc3sc(-c4ccc(Br)o4)nn23)c(Cl)c1 | -18% |  | 1.46 µM [rising, partial curve] |
